Taken from: PubChem BioAssay AID1508588 (Peter MacCallum Cancer Centre, 2020)
Here is one part, drawn at random, of about 18,000 deposited reagents. 790 of them (4.4%) were called active. 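Calls rest on a combination of fold-change classes in drug and vehicle arms, not all shown here.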

Purpose: 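Genome-wide search for knock-downs that heighten vemurafenib action in melanoma cells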 (primary screen)
Cells: human WM266.4 melanoma cells (BRAF V600 mutant)
Reagents: siRNA pool against human genes, 40 nM
Time to read-out: 96 h from transfection to read-out
Treatment: vemurafenib 300 nM (about IC25), added 48 h after transfection, for 48 h; comparison arm got DMSO vehicle only
Measured: 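Ratios to non-targeting siRNA for cell gain, counted as DAPI nuclei after minus before drug and averaged over two replicates, and for absorbance-read medium lactate per cell; both binned into fold-change classes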
Reading the numbers: cell gain with vemurafenib: higher = more cell gain than with non-targeting siRNA; lactate per cell with vemurafenib: higher = more lactate made per cell
Rule for the call: 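Enhancement is called by pairing each knock-down's vehicle-arm and drug-arm fold-change classes for viability or glycolysis; which class combinations qualify is not given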
Meaning of the calls: active = enhances vemurafenib effect; inactive = no enhancement seen

cell gain with vemurafenib | lactate per cell with vemurafenib | activity call | gene | PubChem SID
0.66 | 0.8 | inactive | ZNF230 | SID135623918
0.41 | 0.94 | inactive | CHN1 | SID152151314
1.02 | 0.88 | inactive | ZIC2 | SID134321438
1.12 | 0.42 | inactive | LGR5 | SID152151737
0.17 | 0.69 | inactive | S100A12 | SID134316431
0.64 | 0.32 | inactive | NUP50 | SID152146975
0.11 | 0.75 | inactive | TMOD2 | SID134324073
0.33 | 0.15 | active | GRAMD1C | SID152147133
0.22 | 2.51 | inactive | GRB2 | SID134323025
0.72 | 1.57 | inactive | PFN1 | SID134316308
0.85 | 1.24 | inactive | SRGAP3 | SID152151814
0.27 | 0.9 | inactive | PELP1 | SID152155330
0.9 | 0.71 | inactive | TINAGL1 | SID134313249
0.63 | 1.61 | inactive | GIMAP8 | SID152154948
0.56 | 0.98 | inactive | NUDT22 | SID134318954
0.58 | 0.56 | inactive | ZNF335 | SID134320175
0.87 | 0.7 | inactive | PRKG2 | SID56478832
0.35 | 2.4 | inactive | NDUFB4 | SID134329967
0.36 | 1.39 | inactive | MYO1G | SID152155144
0.73 | 0.65 | inactive | APOBEC1 | SID152150150
0.1 | 2.63 | inactive | CLSTN1 | SID135623980
0.68 | 0.3 | inactive | PMP2 | SID134313326
1.11 | 0.53 | inactive | SLC26A4 | SID152151742
0.55 | 1.58 | inactive | PLXNB1 | SID134323368
0.53 | 0.8 | inactive | THRAP3 | SID152150759
0.67 | 0.94 | inactive | CPSF7 | SID134319862
0.61 | 1.11 | inactive | CAP2 | SID134316500
0.32 | 1.11 | inactive | NIP7 | SID152152512
0.71 | 0.98 | inactive | CTPS1 | SID152149436
1.07 | 0.9 | inactive | TRIM75 | SID135624761
0.88 | 0.24 | inactive | ZNF253 | SID152150175
0.28 | 0.56 | inactive | SLC17A7 | SID134312465
0.7 | 0.52 | inactive | GMFG | SID56479288
0.3 | 0.42 | active | TMPPE | SID135625473

Looked up above:
CAP2 [SID134316500], cell gain with vemurafenib → 0.61
Result for PELP1 [SID152155330] in “lactate per cell with vemurafenib”: 0.9
Value of CHN1 [SID152151314] under “activity call”: inactive
Value of TRIM75 [SID135624761] under “activity call”: inactive
Result of TMPPE [SID135625473] in “cell gain with vemurafenib”: 0.3
